According to patent US20060142189A1:
Results are given in words; binding and its absence hold for the method and conditions named. Some entries that bind do so weakly or less than the wild type.

Protein sequences, listed by entry. Tags and fused reporters are not part of them. Lines headed by an entry give the natural chain unless they say otherwise; changes in a name come on top. Chains listed by the source or under a name are the forms on record and can include a tag or linker.
UniProt Q05695: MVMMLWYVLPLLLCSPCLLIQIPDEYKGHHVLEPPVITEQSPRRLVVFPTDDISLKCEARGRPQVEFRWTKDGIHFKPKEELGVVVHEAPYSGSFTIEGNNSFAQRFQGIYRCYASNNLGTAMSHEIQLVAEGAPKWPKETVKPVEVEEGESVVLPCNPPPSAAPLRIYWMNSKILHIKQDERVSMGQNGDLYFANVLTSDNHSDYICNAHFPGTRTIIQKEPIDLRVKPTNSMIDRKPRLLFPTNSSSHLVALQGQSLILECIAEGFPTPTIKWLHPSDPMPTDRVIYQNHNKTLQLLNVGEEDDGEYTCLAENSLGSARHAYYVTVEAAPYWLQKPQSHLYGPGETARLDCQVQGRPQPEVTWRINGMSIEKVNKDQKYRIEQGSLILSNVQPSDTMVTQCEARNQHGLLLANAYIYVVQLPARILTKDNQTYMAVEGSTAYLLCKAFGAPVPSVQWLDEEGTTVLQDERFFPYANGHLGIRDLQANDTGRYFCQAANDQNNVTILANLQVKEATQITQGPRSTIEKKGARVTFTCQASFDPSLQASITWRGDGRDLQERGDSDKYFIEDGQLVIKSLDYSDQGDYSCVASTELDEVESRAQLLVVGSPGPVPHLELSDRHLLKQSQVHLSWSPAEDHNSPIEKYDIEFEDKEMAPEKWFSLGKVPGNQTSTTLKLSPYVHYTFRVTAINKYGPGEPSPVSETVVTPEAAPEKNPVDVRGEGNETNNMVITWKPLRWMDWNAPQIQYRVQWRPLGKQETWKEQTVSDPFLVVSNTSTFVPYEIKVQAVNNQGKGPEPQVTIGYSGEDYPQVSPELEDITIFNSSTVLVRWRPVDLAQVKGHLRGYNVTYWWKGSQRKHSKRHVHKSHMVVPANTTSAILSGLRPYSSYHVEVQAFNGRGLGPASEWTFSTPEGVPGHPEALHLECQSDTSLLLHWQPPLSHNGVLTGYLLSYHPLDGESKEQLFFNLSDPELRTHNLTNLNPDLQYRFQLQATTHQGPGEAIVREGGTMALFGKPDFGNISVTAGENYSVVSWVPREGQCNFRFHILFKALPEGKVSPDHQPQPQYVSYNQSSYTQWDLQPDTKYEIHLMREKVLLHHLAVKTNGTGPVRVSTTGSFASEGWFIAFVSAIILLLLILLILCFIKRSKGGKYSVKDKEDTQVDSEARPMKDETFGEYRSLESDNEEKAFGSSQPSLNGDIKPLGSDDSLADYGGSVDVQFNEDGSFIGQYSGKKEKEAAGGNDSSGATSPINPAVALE
ankyrinB (endogenous in human kidney 293 cells) (Q01484, form named): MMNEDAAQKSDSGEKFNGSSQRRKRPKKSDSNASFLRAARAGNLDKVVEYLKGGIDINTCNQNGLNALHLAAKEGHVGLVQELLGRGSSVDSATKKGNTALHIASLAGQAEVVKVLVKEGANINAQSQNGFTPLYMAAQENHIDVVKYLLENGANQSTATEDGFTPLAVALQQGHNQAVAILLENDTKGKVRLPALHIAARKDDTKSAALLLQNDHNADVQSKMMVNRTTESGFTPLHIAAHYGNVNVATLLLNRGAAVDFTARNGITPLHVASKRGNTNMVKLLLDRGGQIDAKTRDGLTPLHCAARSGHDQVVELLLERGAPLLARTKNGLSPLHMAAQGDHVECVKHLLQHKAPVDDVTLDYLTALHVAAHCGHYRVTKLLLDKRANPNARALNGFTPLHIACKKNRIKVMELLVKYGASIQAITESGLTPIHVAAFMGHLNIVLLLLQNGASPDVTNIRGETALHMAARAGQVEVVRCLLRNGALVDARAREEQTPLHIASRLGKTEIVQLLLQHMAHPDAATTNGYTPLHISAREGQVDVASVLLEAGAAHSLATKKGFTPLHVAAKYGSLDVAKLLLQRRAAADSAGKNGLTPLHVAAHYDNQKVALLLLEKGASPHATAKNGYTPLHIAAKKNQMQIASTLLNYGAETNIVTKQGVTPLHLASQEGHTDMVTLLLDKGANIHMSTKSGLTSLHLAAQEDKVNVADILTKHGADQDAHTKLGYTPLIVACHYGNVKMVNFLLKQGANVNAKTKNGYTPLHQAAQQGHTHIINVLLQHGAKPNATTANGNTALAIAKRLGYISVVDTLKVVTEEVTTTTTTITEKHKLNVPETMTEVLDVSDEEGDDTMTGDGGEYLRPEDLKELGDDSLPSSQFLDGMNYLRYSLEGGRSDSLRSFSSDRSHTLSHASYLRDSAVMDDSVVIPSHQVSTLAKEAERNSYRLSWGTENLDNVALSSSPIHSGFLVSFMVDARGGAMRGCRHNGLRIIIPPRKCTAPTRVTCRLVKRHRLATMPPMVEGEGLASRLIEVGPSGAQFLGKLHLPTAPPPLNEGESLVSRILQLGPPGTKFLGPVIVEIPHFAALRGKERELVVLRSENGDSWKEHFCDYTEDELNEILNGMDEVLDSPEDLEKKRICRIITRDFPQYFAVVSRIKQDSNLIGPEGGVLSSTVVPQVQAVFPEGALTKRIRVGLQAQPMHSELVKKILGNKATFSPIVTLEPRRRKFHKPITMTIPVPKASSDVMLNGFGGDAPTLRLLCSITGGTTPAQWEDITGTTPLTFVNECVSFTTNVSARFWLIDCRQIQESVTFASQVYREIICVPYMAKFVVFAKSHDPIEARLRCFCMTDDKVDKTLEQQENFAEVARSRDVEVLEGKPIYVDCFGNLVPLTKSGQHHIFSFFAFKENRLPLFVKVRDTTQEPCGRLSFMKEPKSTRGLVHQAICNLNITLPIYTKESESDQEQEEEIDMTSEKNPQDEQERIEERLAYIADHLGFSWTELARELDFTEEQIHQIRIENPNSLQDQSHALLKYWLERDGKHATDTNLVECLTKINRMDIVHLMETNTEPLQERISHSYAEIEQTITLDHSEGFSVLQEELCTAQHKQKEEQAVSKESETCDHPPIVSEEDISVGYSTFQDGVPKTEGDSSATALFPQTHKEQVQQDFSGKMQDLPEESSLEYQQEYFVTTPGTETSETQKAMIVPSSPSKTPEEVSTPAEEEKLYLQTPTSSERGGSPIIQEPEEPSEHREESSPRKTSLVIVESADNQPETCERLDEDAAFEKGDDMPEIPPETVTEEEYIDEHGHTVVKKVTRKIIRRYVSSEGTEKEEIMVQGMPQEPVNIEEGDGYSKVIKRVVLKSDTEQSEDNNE

Target: myc-L1-CAM (myc-tagged rat L1-CAM variant expressed from pMyc-L1-CAM) (rat (variant of rat L1-CAM)) (UniProt Q05695)
Assay: membrane recruitment / co-localization by confocal immunofluorescence in transfected 293 cells

binding: binds
Substance: ankyrinB (endogenous in human kidney 293 cells) (from UniProt Q01484 1-1872)
